{
  "source": "patent US5071749A",
  "about": "“Glycopetide antibiotic PA-45052-B” (Shionogi & Co., Ltd., priority 1987, dated 1991)",
  "data": [
    {"system": "broiler chicks", "assay": "Growth-stimulation test on chicks", "assay_type": "in vivo, broiler chicks (arbor acre)", "settings": "20 ppm in feed for 14 days", "text": "The growth-stimulating activities of PA-45052-A, PA-45052-B and PA-45052-E on broiler chicks (arbor acre, 8 days old) were investigated by using the known antibiotic thiopeptin as a referential agent. Chicks were fed with a feed mush (crude protein (CP) concentration 18%, each agent's concentration 20 ppm, not supplemented with other antibiotics) for 14 days in the battery brooders. The method of this experiment was as follows. After chicks were fed by floor pen with a feed (CP concentration 23%) from 0 to 8 days, they were divided into 5 groups (24 chicks a group, 12 male and 12 female) in such a way that the average weights of the groups are equal. To each group was administered PA-45052-A (20 ppm), PA-45052-B (20 ppm), PA-45052-E (20 ppm), thiopeptin (20 ppm) or only a feed (CP 18%) for 14 days. Each group was fed in cages (435×600×410 mm, each cage has 6-7 chicks) at 26°±2° C. for 14 days (up to 22 days old). Effectiveness was estimated from the increase of weight and the feed efficiency.", "units": {"Feed efficiency B (M = g), average intake of feed": "g"}, "values": [
      {"molecule": "CNC(CC(C)C)C(=O)NC1C(=O)NC(CC(N)=O)C(=O)NC2C(=O)NC3C(=O)NC(C(=O)NC(C(=O)O)c4cc(O)cc(O)c4-c4cc3ccc4O)C(OC3CC(C)(N)C(O)C(C)O3)c3ccc(c(Cl)c3)Oc3cc2cc(c3OC2OC(CO)C(O)C(O)C2OC2CC(C)(N)C(O)C(C)O2)Oc2ccc(cc2Cl)C1O", "note": "(stereo not drawn) [PA-45052-A]", "Feed efficiency B (M = g), average intake of feed": 719.1},
      {"molecule": "CNC(CC(C)C)C(=O)NC1C(=O)NC(CC(N)=O)C(=O)NC2C(=O)NC3C(=O)NC(C(=O)NC(C(=O)O)c4cc(O)cc(O)c4-c4cc3ccc4O)C(OC3CC(C)(N)C(O)C(C)O3)c3ccc(c(Cl)c3)Oc3cc2cc(c3OC2OC(CO)C(O)C(O)C2O)Oc2ccc(cc2Cl)C1O", "note": "(stereo not drawn) [PA-45052-B]", "Feed efficiency B (M = g), average intake of feed": 702.1},
      {"molecule": "thiopeptin [reference compound]", "Feed efficiency B (M = g), average intake of feed": 697.1}
    ]}
  ]
}
